{"source": "PubChem BioAssay AID1259308 (NCATS, 2017)", "purpose": "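Candidate targets for better recombinant protein yield in mammalian cells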 (primary screen)", "cells": "human HEK293 embryonic kidney cells stably expressing firefly luciferase (HEK-CMV-Luc2-Hygro)", "reagent": "single siRNA against human genes, 0.8 pmol siRNA per well", "duration": "72 h", "read-out": "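Reporter luminescence and viable-cell signal on separate replicate plates, given as percent of non-targeting control and median/MAD z-scores, plus per-cell luciferase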", "reading the numbers": "total luciferase, z-score: higher = more reporter protein produced", "hit rule": "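An siRNA counts as active if its total luciferase robust z-score exceeds 3; genes with two or more such siRNAs out of three were retested with fresh siRNAs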", "meaning of the calls": "active = raised luciferase; inactive = no rise", "note": "The whole screen tested about 59,000 reagents; below is a part drawn at random. About 1,510 of all reagents (2.6%) count as active. 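Calls use total luciferase alone and ignore viability, so some active siRNAs may act by altering cell number.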 The numbers tell different reagents against one gene apart. Not all columns of the deposit are shown."}
{"gene symbol": "EXOSC4 (exosome component 4)", "reagent no.": 1, "total luciferase, z-score": 0.0123, "Call": "inactive"}
{"gene symbol": "EXOSC4 (exosome component 4)", "reagent no.": 2, "total luciferase, z-score": -1.88, "Call": "inactive"}
{"gene symbol": "EXOSC4 (exosome component 4)", "reagent no.": 3, "total luciferase, z-score": -0.0567, "Call": "inactive"}
{"gene symbol": "CPB1 (carboxypeptidase B1)", "reagent no.": 1, "total luciferase, z-score": -0.109, "Call": "inactive"}
{"gene symbol": "CPB1 (carboxypeptidase B1)", "reagent no.": 2, "total luciferase, z-score": 0.251, "Call": "inactive"}
{"gene symbol": "CPB1 (carboxypeptidase B1)", "reagent no.": 3, "total luciferase, z-score": -0.122, "Call": "inactive"}
{"gene symbol": "PSKH1 (protein serine kinase H1)", "reagent no.": 1, "total luciferase, z-score": -0.736, "Call": "inactive"}
{"gene symbol": "PSKH1 (protein serine kinase H1)", "reagent no.": 2, "total luciferase, z-score": 1.26, "Call": "inactive"}
{"gene symbol": "PSKH1 (protein serine kinase H1)", "reagent no.": 3, "total luciferase, z-score": -1.23, "Call": "inactive"}

Next part; the last 2 above are carried over.
{"gene symbol": "PSKH1 (protein serine kinase H1)", "reagent no.": 2, "total luciferase, z-score": 1.26, "Call": "inactive"}
{"gene symbol": "PSKH1 (protein serine kinase H1)", "reagent no.": 3, "total luciferase, z-score": -1.23, "Call": "inactive"}
{"gene symbol": "FAM221B (family with sequence similarity 221 member B)", "reagent no.": 1, "total luciferase, z-score": 5.51, "Call": "active"}
{"gene symbol": "FAM221B (family with sequence similarity 221 member B)", "reagent no.": 2, "total luciferase, z-score": 0.0408, "Call": "inactive"}
{"gene symbol": "FAM221B (family with sequence similarity 221 member B)", "reagent no.": 3, "total luciferase, z-score": 0.488, "Call": "inactive"}
{"gene symbol": "AKT1S1 (AKT1 substrate 1)", "reagent no.": 1, "total luciferase, z-score": 0.117, "Call": "inactive"}
{"gene symbol": "AKT1S1 (AKT1 substrate 1)", "reagent no.": 2, "total luciferase, z-score": 0.817, "Call": "inactive"}
{"gene symbol": "AKT1S1 (AKT1 substrate 1)", "reagent no.": 3, "total luciferase, z-score": -0.428, "Call": "inactive"}
{"gene symbol": "GABRE (gamma-aminobutyric acid type A receptor subunit epsilon)", "reagent no.": 1, "total luciferase, z-score": 0.313, "Call": "inactive"}
{"gene symbol": "GABRE (gamma-aminobutyric acid type A receptor subunit epsilon)", "reagent no.": 2, "total luciferase, z-score": -0.177, "Call": "inactive"}
{"gene symbol": "GABRE (gamma-aminobutyric acid type A receptor subunit epsilon)", "reagent no.": 3, "total luciferase, z-score": 0.715, "Call": "inactive"}
{"gene symbol": "GHDC (GH3 domain containing)", "reagent no.": 1, "total luciferase, z-score": 2.32, "Call": "inactive"}
{"gene symbol": "GHDC (GH3 domain containing)", "reagent no.": 2, "total luciferase, z-score": -0.0152, "Call": "inactive"}
{"gene symbol": "GHDC (GH3 domain containing)", "reagent no.": 3, "total luciferase, z-score": -0.583, "Call": "inactive"}
